Some of the results follow. The main result of the screen is listed elsewhere. These columns were measured beside it and carry no call. Compounds called inactive in the main read-out are mostly missing here. Words in brackets tell the shape of the fitted curve; partial curves, single points and poor fits give uncertain potencies.
assay: S16 Schwann cell PMP22 intronic element beta-lactamase assay (AID 624044); conditions: S16 rat Schwann cells, PMP22 element beta-lactamase FRET, 24 h; measured here: 460 nm blue channel
Procedure, shortened: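 Beta-lactamase reporter under a PMP22 intronic regulatory element in stable S16 rat Schwann cells; 24 h compound exposure. 460 nm blue signal normalized between DMSO (0%) and potassium clavulanate, with 535 nm FRET tracking viability; curves classed by r2 and response.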

Structure (SMILES)	AC50
c1ccc2sc(SN3CCOCC3)nc2c1	2510 nM [falling, partial curve, poor fit]
N=C(N)N1CCc2ccccc2C1	35.5 nM [falling, full curve, poor fit]
Cc1ccc(S(=O)(=O)NCl)cc1	891 nM [rising, full curve, poor fit]
CC1(C)[C@@H]2CC[C@@]1(C)C(=O)C2	5010 nM [falling, full curve]
O=C(O[C@H]1CN2CCC1CC2)N1CCc2ccccc2[C@@H]1c1ccccc1	562 nM [falling, full curve, poor fit]
O=C(O)c1ccc(OCCn2ccnc2)cc1	22.4 nM [falling, full curve, poor fit]
COC(=O)c1cccnc1	2240 nM [falling, full curve, poor fit]
CC[N+](C)(C)c1cccc(O)c1	2130 nM [rising, full curve, poor fit]
CCCCOc1cc(C(=O)NCCN(CC)CC)c2ccccc2n1	239 nM [falling, full curve, poor fit]
CC1(C)C[C@@H]1C(=O)N/C(=C\CCCCSC[C@H](N)C(=O)O)C(=O)O	79.4 nM [falling, full curve, poor fit]
c1ccc2c(c1)CCC[C@@H]2C1=NCCN1	178 nM [falling, full curve, poor fit]
CCC(C)C(N)C(=O)O (stereo not given)	15800 nM [falling, partial curve, poor fit]
Nc1nc(Cl)nc2c1ncn2C1CC(O)C(CO)O1 (stereo not given)	2820 nM [falling, full curve]
O=C(O)CCC(=O)O	1580 nM [falling, full curve, poor fit]
Nc1ccc(C(=O)Nc2ccccc2N)cc1	15800 nM [falling, partial curve, poor fit]
CN(N=O)C(=O)N[C@H]1[C@@H](O)[C@H](O)[C@H](CO)O[C@@H]1O	5350 nM [falling, partial curve, poor fit]
NC(=S)NS(=O)(=O)c1ccc(N)cc1	999 nM [falling, full curve]

Laid out differently: three of the compounds above
Structure (SMILES),AC50
N=C(N)N1CCc2ccccc2C1,"35.5 nM [falling, full curve, poor fit]"
O=C(O[C@H]1CN2CCC1CC2)N1CCc2ccccc2[C@@H]1c1ccccc1,"562 nM [falling, full curve, poor fit]"
CCC(C)C(N)C(=O)O (stereo not given),"15800 nM [falling, partial curve, poor fit]"

Continued.

Structure (SMILES)	AC50
COc1cc(C(=S)N2CCOCC2)ccc1O	44.6 nM [falling, full curve, poor fit]
CC(C)(C)NC[C@H](O)COc1cccc2c1CCCC2=O	0.755 nM [falling, full curve]
C[C@](N)(Cc1ccc(O)cc1)C(=O)O	25100 nM [rising, single point]
CO[C@H]1[C@@H](OC(N)=O)[C@H](O)[C@@H](Oc2ccc3c(O)c(NC(=O)c4ccc(O)c(CC=C(C)C)c4)c(=O)oc3c2C)OC1(C)C	21.3 nM [falling, full curve, poor fit]
Cc1ccc(S(=O)(=O)O)cc1C	25100 nM [rising, single point]
O=C(O)c1cn(C2CC2)c2cc(N3CCNCC3)c(F)cc2c1=O	848 nM [falling, full curve, poor fit]
CCOC(CN1CCN(CC(C)C(=O)c2ccccc2)CC1)c1ccccc1 (stereo not given)	19.9 nM [falling, full curve, poor fit]
COCc1c(C(C)C)nc(C(C)C)c(/C=C/[C@@H](O)C[C@@H](O)CC(=O)O)c1-c1ccc(F)cc1	19900 nM [falling, partial curve]
O=S1(=O)c2cccc3cccc(c23)N1CCCN1CCN(c2ccc(F)cc2)CC1	1410 nM [falling, full curve]
c1ccc(CNCCNCc2ccccc2)cc1	1410 nM [falling, full curve, poor fit]
Cc1nc2ccccc2n1Cc1ccc(Cl)cc1	14100 nM [falling, single point]
CC(=O)C1(O)Cc2c(O)c3c(c(O)c2C(OC2CC(N)C(O)C(C)O2)C1)C(=O)c1c(O)cccc1C3=O (stereo not given)	99.9 nM [falling, full curve]
CO/N=C(\C(=O)N[C@@H]1C(=O)N2C(C(=O)[O-])=C(C[n+]3cccc4c3CCC4)CS[C@H]12)c1csc(N)n1	398 nM [falling, full curve, poor fit]
CC(=O)OCC(=O)[C@@]1(O)CCC2C3CCC4=CC(=O)CC[C@]4(C)C3=CC[C@@]21C (stereo not given in full)	282 nM [falling, full curve, poor fit]
O=C(O)COc1ccccc1/C=N/NC(=O)c1ccncc1	14.1 nM [falling, full curve, poor fit]
S=C1NC=NC2N=CNC12 (stereo not given)	5010 nM [falling, full curve]

same assay, conditions: S16 rat Schwann cells, PMP22 element beta-lactamase FRET, 24 h; measured here: 530 nm viability channel

Structure (SMILES)	AC50
O=C(O)[C@H](CC(=O)N1C[C@H]2CCCC[C@H]2C1)Cc1ccccc1	14100 nM [falling, single point]
Cc1cc2nc3c(=O)[nH]c(=O)nc-3n(CC(O)C(O)C(O)CO)c2cc1C (stereo not given)	12600 nM [rising, full curve]
C[C@H]1CC[C@]2(OC1)O[C@@H]1C[C@@H]3[C@@H]4CC[C@H]5C[C@@H](O)CC[C@]5(C)[C@@H]4CC(=O)[C@@]3(C)[C@H]1[C@@H]2C	10000 nM [falling, partial curve]
CO/N=C(/C(=O)N[C@@H]1C(=O)N2C(C(=O)O)=C(C[n+]3ccc(N)n3CCO)CS[C@H]12)c1csc(N)n1	3160 nM [falling, full curve]
CC1(C)Oc2ccc(C#N)cc2[C@H](N2CCCC2=O)[C@H]1O	1780 nM [falling, full curve, poor fit]
O=C(O)CCc1nc2ccccc2[nH]1	1410 nM [falling, full curve, poor fit]
Nc1nc2c(ncn2CCC(CO)CO)c(=O)[nH]1	1260 nM [falling, full curve, poor fit]

— PubChem BioAssay (NCATS)
